PubChem BioAssay AID652259 – Drosophila RNAi Screening Center | 2013

- Test: 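Knock-downs that push a Wingless-driven reporter up or down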 (primary screen)
- System: Drosophila clone 8 imaginal disc epithelial cells
- Knock-down reagent: long dsRNA against Drosophila genes
- Challenge: pathway stimulated by co-transfected Wingless expression plasmid
- Measurement: 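Firefly luciferase from a tcf-site Wingless reporter, measured alongside co-transfected Renilla luciferase that tracks transfection; pathway stimulated by a Wingless plasmid; the firefly-to-Renilla ratio is not deposited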
- Direction: firefly reporter light: higher = more Wg reporter light, before normalisation; Renilla control light: higher = more transfected or surviving cells
- Hit rule: 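a knock-down is a candidate when at least two out of four statistical tests show it departing from its plate mean; one test alone signals a weak candidate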
- Calls: active = candidate regulator (raises or lowers reporter); inactive = not a candidate
The screen tested about 22,000 reagents; shown is a random part of those with a known target gene and a result. Of all reagents, 233 (1.1%) are marked active. 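Light values are raw, unnormalised plate reads; the ratio scores behind the reporter calls were not deposited.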 Unmarked entries are inactive. A plus sign joins genes that one reagent is predicted to hit. No sequences are given here. Not stated in the record: the amount of reagent, the time to read-out, the dose of the treatment.

predicted target	amplicon	reporter change call, replicate 1	firefly reporter light, replicate 1	firefly reporter light, replicate 2	Renilla control light, replicate 1	Renilla control light, replicate 2
CG14708	DRSC14930		13029		1680	
CG13102	DRSC02202		2583	4224	945	2748
Pka-C3	DRSC09402		4177		1504	
Pka-C3	DRSC11254		4857		3316	
CG16890	DRSC01890		15337		4726	
CG43125	DRSC13866		5624		2395	
CG42597	DRSC03681		13851		7276	
CG14995	DRSC08452	Wg reporter activity raised (active)	7917		1040	
CkIIbeta2	DRSC07361		5386		2099	
CG2217 + CG42740	DRSC14141		3123	6578	1104	2129
Slimp	DRSC13656		3475		1312	
Phk-3	DRSC04547		2530	5344	752	2377
AdoR	DRSC16556		3240		1648	
CRIF	DRSC11811		17040		4612	
CG2291	DRSC06836		3490	8345	658	2963
CG11350	DRSC08181		1920	10145	1047	3700
TyrRII	DRSC15150		11291		1962	
CG13437	DRSC06397		5276		2437	
Arf1	DRSC11606		4995		2192	
CG32305	DRSC08614		4631		2774	
ClpX	DRSC15592		1917	3300	859	1480
Acp62F	DRSC08136		4499		1740	
Klp59C	DRSC04348		3261	9971	715	3051
CG34268	DRSC07874		4167		1773	
hang	DRSC19901	Wg reporter activity raised (active)	3861	9899	422	1094
hang	DRSC19902		17387		3532	
Ir67a	DRSC09897		4352		2084	
CG10211	DRSC02027		2993	6515	805	2982
CG18417	DRSC10319		1270	7648	1140	3468
Or2a	DRSC18690		14256		9057	
CG42566	DRSC03949		17962		9917	
Ada1-1 + Ada1-2	DRSC01220		31640		12560	
Ada1-1 + Ada1-2	DRSC01222		23506		9468	
TfIIB	DRSC03454		3110	8533	694	1568
Gmap	DRSC19988		2612	13561	970	4104
Gmap	DRSC20057		18081		8218	
Mp	DRSC10193		8216	7.77e5	4054	3.90e5
Mp	DRSC11029		2466	7569	2058	2653
Mp	DRSC11030		2561	5013	1424	1824
bigmax	DRSC15481		4424	9639	1734	3523
CG15711	DRSC06582	Wg reporter activity lowered	6469		1975	
CG15772	DRSC18078		14129		7072	
atlas	DRSC04183		3062	8688	982	3696
pan	DRSC17176	Wg reporter activity lowered (active)	338	448	956	1590
pan	DRSC22582		4.61e5	4.30e5	1.62e5	1.24e5
CG14634	DRSC17944		16436		13811	
GATAd	DRSC02803		8773		2837	
Lztr1	DRSC18176		27992		13981	
Lztr1	DRSC18647		17012		12855	
CG30089	DRSC06126		18706	6.96e5	4233	3.54e5
CG30089	DRSC06127		6711		625	
CG30089	DRSC06267	Wg reporter activity lowered	14817		4299	
CG30089	DRSC06268		3811		1012	
CG30089	DRSC21694		8.04e5	7.41e5	2.48e5	2.29e5
CG11037	DRSC11631		17444		6678	
CG12301	DRSC09875		2256		1040	
CG18788	DRSC02697		2390	6028	947	2290
Rac2	DRSC11262		1154	3929	1091	2276
CG11498	DRSC14315		5641		1908	
CG4714	DRSC06883		12632		3584	
CG7300	DRSC03044		9186		2599	
ppk19	DRSC15321		5349		3002	
CG9691	DRSC18441		21400		9691	
CG14635	DRSC17945		24983		14547	
Cyp4p3	DRSC07374		4043	9600	1175	1959
CG31777	DRSC00201		15305		8051	
CG17568	DRSC02628		3658	11869	1171	4747
CG5098	DRSC06915		17912		6439	
mahj	DRSC04053		5204		2171	
Xpac	DRSC18730		17442		10037	
HmgD	DRSC04619		12556		4161	
Svip	DRSC08982		1860		588	
eEF1alpha1	DRSC07421		5480		2024	

Records listed so far whose target name begins with P or p:
predicted target	amplicon	reporter change call, replicate 1	firefly reporter light, replicate 1	firefly reporter light, replicate 2	Renilla control light, replicate 1	Renilla control light, replicate 2
Pka-C3	DRSC09402		4177		1504	
Pka-C3	DRSC11254		4857		3316	
Phk-3	DRSC04547		2530	5344	752	2377
pan	DRSC17176	Wg reporter activity lowered (active)	338	448	956	1590
pan	DRSC22582		4.61e5	4.30e5	1.62e5	1.24e5
ppk19	DRSC15321		5349		3002	
